In the supplement of paper PMC8728848:
Some of the results follow.

Legend:
Assay in all cases: glycan array binding signal (z-score within array); higher = stronger binding
Conditions in all cases: glycan notation: IUPAC condensed, linker removed
[1] = target: GlcNAc(b1-3)Gal(b1-4)GlcNAc(b1-3)Gal(b1-4)GlcNAc(b1-3)Gal(b1-4)GlcNAc(b1-3)Gal(b1-4)GlcNAc(b1-2)[GlcNAc(b1-3)Gal(b1-4)GlcNAc(b1-3)Gal(b1-4)GlcNAc(b1-3)Gal(b1-4)GlcNAc(b1-3)Gal(b1-4)GlcNAc(b1-6)]Man(a1-6)[GlcNAc(b1-3)Gal(b1-4)GlcNAc(b1-3)Gal(b1-4)GlcNAc(b1-3)Gal(b1-4)GlcNAc(b1-3)Gal(b1-4)GlcNAc(b1-2)Man(a1-3)]Man(b1-4)GlcNAc(b1-4)[Fuc(a1-6)]GlcNAc
How it was run: (§1)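 Glycan array binding is given as a within-array Z-score, which can be read as non-binding when negative. The arrays, 3228 of them, came from the Consortium for Functional Glycomics database and were retained only where the protein sequence was available. Z-scores were averaged across arrays of the same protein sequence at different concentrations or buffers and across linkers.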

[2] = target: GlcNAc(b1-3)Gal(b1-4)GlcNAc(b1-3)Gal(b1-4)GlcNAc(b1-3)GalNAc
How it was run: as §1

[3] = target: GlcNAc(b1-3)Gal(b1-4)GlcNAc(b1-3)GalNAc
How it was run: as §1

[4] = target: GlcNAc(b1-3)Gal(b1-4)GlcNAc(b1-3)[GlcNAc(b1-3)Gal(b1-4)GlcNAc(b1-3)]GalNAc
How it was run: as §1

[5] = target: GlcNAc(b1-3)Gal(b1-4)GlcNAc(b1-6)[Gal(b1-3)]GalNAc
How it was run: as §1

[6] = target: GlcNAc(b1-3)Gal(b1-4)GlcNAc(b1-6)[GlcNAc(b1-3)Gal(b1-3)]GalNAc
How it was run: as §1

[7] = target: GlcNAc(b1-3)Gal(b1-4)GlcNAc(b1-6)[GlcNAc(b1-3)]Gal(b1-4)GlcNAc
How it was run: as §1

GlcNAc(b1-3)GalNAc = target: GlcNAc(b1-3)GalNAc
How it was run: as §1

GlcNAc(b1-3)Man = target: GlcNAc(b1-3)Man
How it was run: as §1

[8] = target: GlcNAc(b1-3)[GlcNAc(b1-4)][GlcNAc(b1-6)]GlcNAc
How it was run: as §1

[9] = target: GlcNAc(b1-3)[GlcNAc(b1-6)]Gal(b1-4)GlcNAc
How it was run: as §1

[10] = target: GlcNAc(b1-3)[GlcNAc(b1-6)]GalNAc
How it was run: as §1

[11] = target: GlcNAc(b1-4)Gal(b1-4)GlcNAc
How it was run: as §1

GlcNAc(b1-4)GlcNAc = target: GlcNAc(b1-4)GlcNAc
How it was run: as §1

[12] = target: GlcNAc(b1-4)GlcNAc(b1-4)GlcNAc
How it was run: as §1

[13] = target: GlcNAc(b1-4)GlcNAc(b1-4)GlcNAc(b1-4)GlcNAc(b1-4)GlcNAc
How it was run: as §1

[14] = target: GlcNAc(b1-4)GlcNAc(b1-4)GlcNAc(b1-4)GlcNAc(b1-4)GlcNAc(b1-4)GlcNAc
How it was run: as §1

[15] = target: GlcNAc(b1-4)[GlcNAc(b1-6)]GalNAc
How it was run: as §1

[16] = target: GlcNAc(b1-6)Gal(b1-4)GlcNAc
How it was run: as §1

GlcNAc(b1-6)GalNAc = target: GlcNAc(b1-6)GalNAc
How it was run: as §1

[17] = target: GlcNAc6S(b1-3)Gal(b1-4)GlcNAc
How it was run: as §1

Kdn(a2-3)Gal(b1-3)GalNAc = target: Kdn(a2-3)Gal(b1-3)GalNAc
How it was run: as §1

Kdn(a2-3)Gal(b1-3)GlcNAc = target: Kdn(a2-3)Gal(b1-3)GlcNAc
How it was run: as §1

Kdn(a2-3)Gal(b1-4)Glc = target: Kdn(a2-3)Gal(b1-4)Glc
How it was run: as §1

Kdn(a2-3)Gal(b1-4)GlcNAc = target: Kdn(a2-3)Gal(b1-4)GlcNAc
How it was run: as §1

[18] = target: Kdn(a2-3)Gal(b1-4)[Fuc(a1-3)]GlcNAc
How it was run: as §1

Kdn(a2-6)Gal(b1-4)GlcNAc = target: Kdn(a2-6)Gal(b1-4)GlcNAc
How it was run: as §1

[19] = target: Man(a1-2)Man(a1-2)Man(a1-3)Man
How it was run: as §1

[20] = target: Man(a1-2)Man(a1-2)Man(a1-6)[Man(a1-3)]Man
How it was run: as §1

Man(a1-2)Man(a1-3)Man = target: Man(a1-2)Man(a1-3)Man
How it was run: as §1

[21] = target: Man(a1-2)Man(a1-3)[Man(a1-2)Man(a1-6)]Man
How it was run: as §1

[22] = target: Man(a1-2)Man(a1-3)[Man(a1-2)Man(a1-6)]Man(a1-6)[Man(a1-2)Man(a1-2)Man(a1-3)]Man
How it was run: as §1

[23] = target: Man(a1-2)Man(a1-3)[Man(a1-2)Man(a1-6)]Man(a1-6)[Man(a1-2)Man(a1-2)Man(a1-3)]Man(b1-4)GlcNAc(b1-4)GlcNAc
How it was run: as §1

[24] = target: Man(a1-2)Man(a1-3)[Man(a1-6)]Man(a1-6)[Man(a1-2)Man(a1-3)]Man(b1-4)GlcNAc(b1-4)GlcNAc
How it was run: as §1

[25] = target: Man(a1-2)Man(a1-6)[Man(a1-3)]Man(a1-6)[Man(a1-2)Man(a1-2)Man(a1-3)]Man
How it was run: as §1

[26] = target: Man(a1-2)Man(a1-6)[Man(a1-3)]Man(a1-6)[Man(a1-2)Man(a1-2)Man(a1-3)]Man(b1-4)GlcNAc(b1-4)GlcNAc
How it was run: as §1

Man(a1-3)[Man(a1-6)]Man = target: Man(a1-3)[Man(a1-6)]Man
How it was run: as §1

[27] = target: Man(a1-3)[Man(a1-6)]Man(a1-6)[Man(a1-2)Man(a1-3)]Man(b1-4)GlcNAc(b1-4)GlcNAc
How it was run: as §1

[28] = target: Man(a1-3)[Man(a1-6)]Man(a1-6)[Man(a1-3)]Man
How it was run: as §1

[29] = target: Man(a1-3)[Man(a1-6)]Man(a1-6)[Man(a1-3)]Man(b1-4)GlcNAc(b1-4)GlcNAc
How it was run: as §1

[30] = target: Man(a1-3)[Man(a1-6)]Man(b1-4)GlcNAc(b1-4)GlcNAc
How it was run: as §1

[31] = target: Man(a1-3)[Man(a1-6)]Man(b1-4)GlcNAc(b1-4)[Fuc(a1-6)]GlcNAc
How it was run: as §1

Man(a1-6)Man = target: Man(a1-6)Man
How it was run: as §1

Man(b1-4)GlcNAc = target: Man(b1-4)GlcNAc
How it was run: as §1

MurNAc(b1-4)GlcNAc = target: MurNAc(b1-4)GlcNAc
How it was run: as §1

B1: FGF1 (Homo sapiens), P05230 (protein)
chain: MAEGEITTFTALTEKFNLPPGNYKKPKLLYSNGGHFLRILPDGTVDGTRDRSDQHIQLQLSAESVGEVYIKSTETGQYLAMTDGLLYGSQTPNEECLFLERLEENHYNTYISKHAEKNWFVGLKKNGSCKRGPRTHYGQAILFLPLPASSED
- glycan array binding signal (z-score) [1]: -0.569
- glycan array binding signal (z-score) [2]: -0.462
- glycan array binding signal (z-score) [3]: -0.249
- glycan array binding signal (z-score) [4]: -0.422
- glycan array binding signal (z-score) [5]: -0.388
- glycan array binding signal (z-score) [6]: -0.585
- glycan array binding signal (z-score) [7]: -0.691
- glycan array binding signal (z-score) (GlcNAc(b1-3)GalNAc): -0.34
- glycan array binding signal (z-score) (GlcNAc(b1-3)Man): -0.136
- glycan array binding signal (z-score) [8]: -0.837
- glycan array binding signal (z-score) [9]: -0.556
- glycan array binding signal (z-score) [10]: -0.611
- glycan array binding signal (z-score) [11]: -0.744
- glycan array binding signal (z-score) (GlcNAc(b1-4)GlcNAc): 0.385
- glycan array binding signal (z-score) [12]: -0.394
- glycan array binding signal (z-score) [13]: -0.273
- glycan array binding signal (z-score) [14]: -0.382
- glycan array binding signal (z-score) [15]: -0.724
- glycan array binding signal (z-score) [16]: -0.198
- glycan array binding signal (z-score) (GlcNAc(b1-6)GalNAc): 0.927
- glycan array binding signal (z-score) [17]: -0.123
- glycan array binding signal (z-score) (Kdn(a2-3)Gal(b1-3)GalNAc): 1.33
- glycan array binding signal (z-score) (Kdn(a2-3)Gal(b1-3)GlcNAc): -0.565
- glycan array binding signal (z-score) (Kdn(a2-3)Gal(b1-4)Glc): 3.53
- glycan array binding signal (z-score) (Kdn(a2-3)Gal(b1-4)GlcNAc): -0.466
- glycan array binding signal (z-score) [18]: 2.37
- glycan array binding signal (z-score) (Kdn(a2-6)Gal(b1-4)GlcNAc): 0.386
- glycan array binding signal (z-score) [19]: -0.833
- glycan array binding signal (z-score) [20]: 0.105
- glycan array binding signal (z-score) (Man(a1-2)Man(a1-3)Man): -0.898
- glycan array binding signal (z-score) [21]: -0.916
- glycan array binding signal (z-score) [22]: -0.522
- glycan array binding signal (z-score) [23]: 0.333
- glycan array binding signal (z-score) [24]: -0.86
- glycan array binding signal (z-score) [25]: -0.67
- glycan array binding signal (z-score) [26]: -0.455
- glycan array binding signal (z-score) (Man(a1-3)[Man(a1-6)]Man): 0.596
- glycan array binding signal (z-score) [27]: 0.039
- glycan array binding signal (z-score) [28]: 1.99
- glycan array binding signal (z-score) [29]: -0.428
- glycan array binding signal (z-score) [30]: -0.515
- glycan array binding signal (z-score) [31]: -0.724
- glycan array binding signal (z-score) (Man(a1-6)Man): 0.019
- glycan array binding signal (z-score) (Man(b1-4)GlcNAc): 0.383
- glycan array binding signal (z-score) (MurNAc(b1-4)GlcNAc): -0.042
